Article PMC6943233, “Disorder‐to‐order transition in PE–PPE proteins of Mycobacterium tuberculosis augments the pro‐pathogen immune response” (FEBS Open Bio, 2019)
No constants are given. Whether binding was seen depends on the method and setting. Some entries that bind do so weakly or less than the wild type. Tags and fused reporters may be left off the sequences shown.

Chains of the proteins cited; added tags and fusions are not shown.
UniProt I6YGS7: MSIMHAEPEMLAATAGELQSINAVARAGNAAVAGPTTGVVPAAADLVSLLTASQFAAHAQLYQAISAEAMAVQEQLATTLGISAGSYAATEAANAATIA

Assays:
[1] = molecular target: T1, PPE65 (Mycobacterium tuberculosis) (UniProt P9WHX2); assay: other fluorescence titration; intrinsic fluorescence of the PPE protein (10 μg) with the tryptophan-free PE protein added (10 and 30 μg); excitation 280 nm, emission 300-340 nm, 25 ± 0.1 °C; both purified
T1 sequence: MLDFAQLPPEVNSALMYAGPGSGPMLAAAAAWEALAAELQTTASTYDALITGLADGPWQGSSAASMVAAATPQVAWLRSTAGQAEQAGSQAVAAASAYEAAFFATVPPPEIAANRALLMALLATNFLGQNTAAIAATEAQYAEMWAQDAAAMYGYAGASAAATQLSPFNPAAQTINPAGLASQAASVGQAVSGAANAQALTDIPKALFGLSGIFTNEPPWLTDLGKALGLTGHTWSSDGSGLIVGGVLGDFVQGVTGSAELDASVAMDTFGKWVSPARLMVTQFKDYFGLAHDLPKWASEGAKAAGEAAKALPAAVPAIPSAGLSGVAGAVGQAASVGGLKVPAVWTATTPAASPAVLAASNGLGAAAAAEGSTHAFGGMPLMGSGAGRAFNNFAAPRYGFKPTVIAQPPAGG

[2] = molecular target: T1, PPE65 (Mycobacterium tuberculosis); assay: FTIR spectroscopy; both proteins mixed in equal amount in 1× PBS and incubated for 1 h at 4 °C; ATR-FTIR of the liquid sample at room temperature; secondary structure of the mixture compared with the single proteins; both purified

With PE32 (from UniProt I6YGS7 1-99) the binding [1] was “binds” and the binding [2] was “binds”.
